Test results published in US8881823B2, “Environmentally friendly low temperature breaker systems and related methods” (Halliburton Energy Services, Inc., priority 2011, dated 2014).

Columns and labels:
[1] = Corrosion test of breaker systems in NaBr brine; details: 10% breaker in 11 lb/gal NaBr brine, non-buffered, 7 days
[2] = Filter cake removal on aloxide disk; details: 20% breaker

Row | Compound | Corrosion Rate, mm/yr ([1]; 105° F.) [mm/yr] | Corrosion Rate, mm/yr ([1]; 150° F.) [mm/yr] | amount of filter cake removed from the aloxide disk ([2]; soaking 16 hours) | uniformity of filter cake removal ([2]; soaking 16 hours at 100° F. or 150° F.)
1 | O=C(O)CC[C@@H](C(=O)O)N(CC(=O)O)CC(=O)O [GLDA, L-glutamic acid N,N-diacetic acid] | 7.6 | 19.1 | approximately 60% | –
2 | O=C(O)CN(CCN(CC(=O)O)CC(=O)O)CC(=O)O [EDTA, reference compound] | 24.7 | 60.2 | – | effective in uniformly removing the filter cake
